Consider one molecule from paper PMC12859559.

No constants are given. Whether binding was seen depends on the method and setting. Some entries that bind do so weakly or less than the wild type.

This assay deals with DLAT (mouse (endogenous in 4T1)) (UniProt Q8BMF4). Kind of assay: Western blot of oligomer bands after SDS-PAGE; RIPA lysates of 4T1 cells treated 24 h with PBS, FFC, ES-Cu, ES-Cu@FFC or ES-Cu&GOx@FFC; DLAT and DLAT oligomers detected with a DLAT antibody.

B1: DLAT (protein, UniProt Q8BMF4 86-642)
chain: SLPPHQKVPLPSLSPTMQAGTIARWEKKEGEKISEGDLIAEVETDKATVGFESLEECYMAKILVPEGTRDVPVGSIICITVEKPQDIEAFKNYTLDLAAAAAPQAAPAAAPAPAAAPAAPSASAPGSSYPTHMQIVLPALSPTMTMGTVQRWEKKVGEKLSEGDLLAEIETDKATIGFEVQEEGYLAKILVPEGTRDVPLGAPLCIIVEKQEDIAAFADYRPTEVTSLKPQAAPPAPPPVAAVPPTPQPVAPTPSAAPAGPKGRVFVSPLAKKLAAEKGIDLTQVKGTGPEGRIIKKDIDSFVPSKAAPAAAAAMAPPGPRVAPAPAGVFTDIPISNIRRVIAQRLMQSKQTIPHYYLSVDVNMGEVLLVRKELNKMLEGKGKISVNDFIIKASALACLKVPEANSSWMDTVIRQNHVVDVSVAVSTPAGLITPIVFNAHIKGLETIASDVVSLASKAREGKLQPHEFQGGTFTISNLGMFGIKNFSAIINPPQACILAIGASEDKLIPADNEKGFDVASVMSVTLSCDHRVVDGAVGAQWLAEFKKYLEKPITMLL
On to B1, for which the binding entry was “binds”.
